Experimental data as given in article PMC9988876.

By UniProt entry, the sequences of proteins in these tests, tags left out.
UniProt O14744: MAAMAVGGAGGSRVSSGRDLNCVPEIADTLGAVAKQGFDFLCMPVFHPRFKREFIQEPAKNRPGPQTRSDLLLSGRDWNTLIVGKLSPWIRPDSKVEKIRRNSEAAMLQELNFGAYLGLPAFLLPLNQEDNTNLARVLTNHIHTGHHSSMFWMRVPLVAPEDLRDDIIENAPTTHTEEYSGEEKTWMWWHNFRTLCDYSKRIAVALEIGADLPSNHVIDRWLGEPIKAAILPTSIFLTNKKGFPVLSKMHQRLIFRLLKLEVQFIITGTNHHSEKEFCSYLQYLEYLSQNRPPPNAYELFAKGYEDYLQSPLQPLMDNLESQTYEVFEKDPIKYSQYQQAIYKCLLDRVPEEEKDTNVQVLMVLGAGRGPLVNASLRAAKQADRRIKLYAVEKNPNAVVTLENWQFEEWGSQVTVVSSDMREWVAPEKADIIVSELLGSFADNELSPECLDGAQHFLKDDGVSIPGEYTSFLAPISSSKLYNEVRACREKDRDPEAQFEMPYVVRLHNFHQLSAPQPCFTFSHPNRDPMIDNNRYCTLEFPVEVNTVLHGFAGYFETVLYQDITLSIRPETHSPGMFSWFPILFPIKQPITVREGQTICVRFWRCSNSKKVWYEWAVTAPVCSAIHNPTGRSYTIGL

Target: Protein arginine methyltransferase 5 (PRMT5), expressed from a transfected PRMT5 plasmid (UniProt O14744)
Experiment: affinity purification with mass spectrometry; PRMT5 plasmid transfected into HEK293 and Tu686 cells, 48 h; lysates precipitated with anti-PRMT5 beads; silver staining and mass spectrometry

B1: GTPase-activating protein-binding protein 2 (G3BP2), endogenous (protein, UniProt Q9UN86 1-482)
chain: MVMEKPSPLLVGREFVRQYYTLLNKAPEYLHRFYGRNSSYVHGGVDASGKPQEAVYGQNDIHHKVLSLNFSECHTKIRHVDAHATLSDGVVVQVMGLLSNSGQPERKFMQTFVLAPEGSVPNKFYVHNDMFRYEDEVFGDSEPELDEESEDEVEEEQEERQPSPEPVQENANSGYYEAHPVTNGIEEPLEESSHEPEPEPESETKTEELKPQVEEKNLEELEEKSTTPPPAEPVSLPQEPPKAFSWASVTSKNLPPSGTVSSSGIPPHVKAPVSQPRVEAKPEVQSQPPRVREQRPRERPGFPPRGPRPGRGDMEQNDSDNRRIIRYPDSHQLFVGNLPHDIDENELKEFFMSFGNVVELRINTKGVGGKLPNFGFVVFDDSEPVQRILIAKPIMFRGEVRLNVEEKKTRAARERETRGGGDDRRDIRRNDRGPGGPRGIVGGGMMRDRDGRGPPPRGGMAQKLGSGRGTGQMEGRFTGQRR
With B1 the binding was “binds”.

No constants are given. Whether binding was seen depends on the method and setting. In cells and extracts the contact can be indirect. These calls come from enrichment with a bait or labelling near it, and not all partners need be listed.
